# In PubChem BioAssay AID445 (National Center for Advancing Translational Sciences (NCATS), 2006):
# The other results are listed elsewhere or left out. Shown are side measurements of this screen, not its main read-out; they come without a call. Most of these compounds were active or inconclusive in the main read-out, so they are no random draw. Potencies come from curve fits of mixed quality, noted in brackets.
# Assay: IkB Signaling
# Details: ABC-DLBCL IkBa-CBG/CBR dual luciferase ratio (green luciferase fused to IkBa over red control in OCI-Ly3 lymphoma cells), 4 h
# Method in brief: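 Curves were fitted separately to fusion (green), unfused (red) and ratio luminescence, then classed by r2, magnitude and activity. Cells: OCI-Ly3, 4 h compound plus doxycycline at 37C; 10 uM MG-132 defined full response.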
# [1] = measured here: control luc red channel unless noted
# [2] = measured here: IkB-luc green channel
# [3] = measured here: control luc red channel
smiles,measurement,setting,value
Cc1ccc(NC(=O)C(=O)NCC(c2cccnc2)N2CCOCC2)cc1C (centres undefined),AC50,[1],"12.6 µM [falling, partial curve]"
C=COCCNC(=O)Nc1ccc(Cl)c(Cl)c1,AC50,[1],"25.1 µM [falling, single point]"
Oc1cccc(C(Nc2ccccn2)c2ccc3cccnc3c2O)c1Cl (centres undefined),AC50,[1],"31.6 µM [falling, partial curve]"
COc1ccc(OC)c(-c2cc(C(=O)N3CCCc4ccccc43)no2)c1,AC50,[1],"12.6 µM [falling, partial curve]"
Fc1cccc(-c2nc(-c3ccncc3)no2)c1,AC50,[1],"3.16 µM [rising, full curve]"
Cc1ccc(C(=O)c2oc3ccccc3c2NC(=O)c2cc(=O)c3ccccc3o2)cc1,AC50,[1],"20 µM [rising, partial curve]"
CCOC(=O)Cc1ccc(NC(=O)n2ncc3c(C)cccc32)cc1,AC50,[1],"39.8 µM [falling, partial curve]"
COc1ccc(OC)c(NC(=O)c2cc(-c3ccc(C)cc3O)n[nH]2)c1,AC50,[1],"3.16 µM [falling, partial curve]"
Clc1ccccc1OCc1nc(-c2ccccn2)no1,AC50,[1],"12.6 µM [falling, partial curve]"
COC(=O)c1ccc(C2Nc3c(C)cc(C)cc3C3C=CCC32)cc1 (centres undefined),AC50,[1],"6.31 µM [falling, partial curve]"
COc1ccc(C(CNC(=O)COc2ccc(C)c(C)c2)N2CCCCC2)cc1 (centres undefined),AC50,[1],"31.6 µM [falling, single point]"
O=C(Nc1cccc(S(=O)(=O)c2cccc(NC(=O)C3CC3)c2)c1)C1CC1,AC50,[1],"10 µM [falling, partial curve]"
COc1ccc(NC(=O)CSc2nc3nc(C)cc(C)n3n2)cc1,AC50,[1],"1.58 µM [rising, full curve, poor fit]"
Cc1c(CNCc2ccc(Cl)cc2)c(C(=O)O)c(C)n1Cc1ccc(F)cc1,AC50,[1],"3.16 µM [falling, full curve]"
c1cc(OCC2CO2)cc(OCC2CO2)c1 (centres undefined),AC50,[1],"15.8 µM [rising, partial curve] [measured here: IkB-luc green channel]"
O=C(Nc1cccc(NC(=O)N2CCN(c3ccccc3)CC2)c1)N1CCN(c2ccccc2)CC1,AC50,[1],"3.16 µM [falling, partial curve]"
Cn1c(=O)oc2cc(S(=O)(=O)N3CCCC(C(=O)N4CC=C(c5ccccc5)CC4)C3)ccc21 (centres undefined),AC50,[1],"3.98 µM [falling, full curve, poor fit]"
COc1ccccc1OCC(=O)Nc1ccccn1,AC50,[1],"7.94 µM [falling, partial curve]"
CCC1CCCCN1S(=O)(=O)c1ccc(NC(=O)c2cc(=O)c3ccccc3o2)cc1 (centres undefined),AC50,[1],"5.01 µM [falling, partial curve, poor fit]"
CCN(CCCNC(=O)c1cc2c(=O)[nH]c3ccccc3c2s1)c1ccccc1,AC50,[1],"20 µM [rising, partial curve]"
CCCCOc1ccc(C2c3c(-c4ccccc4O)n[nH]c3C(=O)N2Cc2ccncc2)cc1OC (centres undefined),AC50,[1],"31.6 µM [falling, single point]"
CC(=O)c1cccc(NC(=O)Cn2c(SCC(=O)Nc3ccc(F)cc3)nc3ccccc32)c1,AC50,[1],"10 µM [falling, partial curve]"
COc1ccc(CCN2C(=O)N(c3ccc(F)cc3)C(=O)C2CC(=O)Nc2ccccc2)cc1 (centres undefined),AC50,[1],"15.8 µM [falling, partial curve]"
Cc1cccc(NC(=O)Cn2c(=O)n(Cc3ccc(C(=O)NCc4ccc5c(c4)OCO5)cc3)c(=O)c3ccccc32)c1,AC50,[1],"0.126 µM [rising, full curve, poor fit]"
O=C1C2C3C=CC(CO)(O3)C2C(=O)N1c1ccc(-c2ccccc2)cc1 (centres undefined),AC50,[1],"1.58 µM [falling, partial curve]"
CCOc1ccc(C(=O)c2cn(CC(=O)Nc3cc(OC)cc(OC)c3)c3ccc(F)cc3c2=O)cc1,AC50,[1],"25.1 µM [falling, single point]"
COc1ccc(NC(=O)Cn2c(=O)oc3cc(S(=O)(=O)NC(C)C)ccc32)cc1OC,AC50,[1],"0.631 µM [rising, full curve, poor fit]"
Cc1ccccc1Cn1c(CCCNC(=O)C2CCCCC2)nc2ccccc21,AC50,[1],"15.8 µM [falling, partial curve]"
Cc1noc(C)c1C(=O)Nc1sc(C)c(-c2ccccc2)c1C#N,AC50,[1],"2.51 µM [falling, full curve]"
CCCSCCCNC(=O)C1CCN(C(=O)c2cc3sccc3n2C)CC1,AC50,[1],"25.1 µM [falling, single point]"
Cc1nnc(N2CCC(C(=O)NC(C)C)CC2)c2nn(-c3ccc(Cl)cc3)c(C)c12,AC50,[1],"39.8 µM [falling, single point]"
CC(C)(C)C(=O)C1C(=O)c2ccccc2C1=O,AC50,[1],"15.8 µM [falling, full curve, poor fit]"
CSc1nc2sc3c(c2c(=O)n1C)CCCC3,AC50,[1],"1.58 µM [rising, full curve]"
Cc1ccc(NC(=O)CSc2nc3ccc(NC(=O)c4cccs4)cc3s2)c(C)c1,AC50,[1],"5.01 µM [falling, full curve]"
COc1cccc(Cn2c(=O)n(-c3cccc(Cl)c3C)c(=O)c3c4c(sc32)CN(C(C)=O)CC4)c1,AC50,[1],"39.8 µM [falling, single point]"
CCc1cnc2c(c1SCC(=O)Nc1ccc(Cl)cc1)c(=O)n(C)c(=O)n2C,AC50,[1],"3.98 µM [rising, single point] [measured here: IkB-luc green channel]"
COc1ccccc1CNC(=O)Cn1c(=O)oc2cc(S(=O)(=O)N3CCC(C)CC3)ccc21,AC50,[1],"15.8 µM [falling, partial curve]"
COc1cccc(CNCCSc2nnnn2C)c1OCc1ccc(Cl)cc1Cl,AC50,[1],"25.1 µM [falling, partial curve]"
COc1ccc(C2c3cccn3CCN2S(=O)(=O)c2ccccc2[N+](=O)[O-])cc1OC (centres undefined),AC50,[1],"0.316 µM [rising, full curve]"
O=C(NCC(c1ccc2c(c1)OCO2)N1CCOCC1)c1ccccc1F (centres undefined),AC50,[1],"6.31 µM [rising, partial curve]"
Cc1cccn2cc(-c3cccc(NS(=O)(=O)c4ccc(Cl)c(Cl)c4)c3)nc12,AC50,[1],"20 µM [falling, partial curve]"
CCc1ccc(CNC(=O)CCc2c(C)nn(-c3ccc(N4CCCCC4)nn3)c2C)cc1,AC50,[1],"15.8 µM [falling, partial curve]"
CCc1ccc2occ(CC(=O)Nc3c(C(=O)Nc4ccc(OC)cc4)oc4ccccc34)c2c1,AC50,[1],"12.6 µM [falling, single point]"
CC(CNC(=O)Cn1ccc2cc(S(=O)(=O)N3CCCCC3)ccc21)c1ccccc1 (centres undefined),AC50,[1],"12.6 µM [falling, partial curve]"
CCS(=O)(=O)N1CCc2cc(C(=O)Nc3ccc(C)c(Cl)c3)ccc21,AC50,[1],"39.8 µM [falling, single point]"
CCCCOc1ccc(C(=O)NCC2(N3CCN(C)CC3)CCCCC2)cc1,AC50,[1],"25.1 µM [falling, partial curve]"
CCOC(=O)C1CCN(c2nc(-c3ccc(Br)cc3)nc3ccccc23)CC1,AC50,[1],"2.51 µM [falling, partial curve]"
Fc1ccc(-c2nnc3ccc(N4CCc5ccccc5C4)nn23)cc1,AC50,[2],"31.6 µM [falling, single point]"
same,AC50,[3],"39.8 µM [falling, single point]"
O=C(CSc1nnc(-c2ccccc2O)o1)N1CCc2ccccc2C1,AC50,[1],"20 µM [falling, partial curve]"
Oc1ccc(-c2nc3ncccn3c2Nc2ccc3c(c2)OCCO3)cc1,AC50,[1],"10 µM [falling, partial curve]"
COc1cccc(CNC(=O)C2Cc3cc(S(=O)(=O)N4CCCCCC4)ccc3N2C(C)=O)c1 (centres undefined),AC50,[1],"3.16 µM [rising, single point]"
Cc1c(C(=O)N(C)C)sc2c1c(=O)n(-c1ccc(F)cc1)c(=O)n2Cc1cc(=O)n2ccccc2n1,AC50,[1],"10 µM [rising, partial curve, poor fit]"
CCC(=O)N1CCc2cc(Br)cc(S(=O)(=O)N3CCCC(C(=O)NCc4cccc(OC)c4)C3)c21 (centres undefined),AC50,[1],"7.94 µM [falling, full curve]"
Cc1nc2c(-c3ccccc3)c(C)nn2c(C)c1CCC(=O)N1CCN(c2ccccc2)CC1,AC50,[1],"10 µM [falling, partial curve]"
CC(=O)N1CCCc2ccc(NS(=O)(=O)c3ccc(C)c(C)c3)cc21,AC50,[1],"12.6 µM [falling, partial curve]"
Cn1nc(C(=O)N2CCN(c3cccc(Cl)c3)CC2)c2c1-c1ccccc1S(=O)(=O)C2,AC50,[1],"10 µM [falling, partial curve]"
CCCCCn1c(NCc2ccccc2OC)nc2ccccc21,AC50,[1],"25.1 µM [falling, single point]"
CCCS(=O)(=O)c1ncc(Cl)c(C(=O)Nc2c(C(=O)c3ccccc3)oc3ccccc23)n1,AC50,[1],"20 µM [falling, single point]"
Cc1cccc(-c2cc3nc4c(c(N5CCC6(CC5)OCCO6)n3n2)CCCC4)c1,AC50,[1],"12.6 µM [falling, partial curve]"
Cc1ccc(CCNC(=O)CCn2c(=O)c3cccn3c3ccc(F)cc32)cc1,AC50,[1],"12.6 µM [falling, partial curve]"
Fc1cccc(F)c1-c1nc(-c2ccncc2)no1,AC50,[2],"6.31 µM [rising, single point]"
same,AC50,[3],"7.94 µM [rising, partial curve]"
CCCN1C[C@H](CSC)C[C@H]2c3cccc4[nH]cc(c34)C[C@@H]21,AC50,[1],"0.316 µM [rising, single point]"

# Part of the list above, as tab-separated lines:
smiles	measurement	setting	value
Fc1cccc(-c2nc(-c3ccncc3)no2)c1	AC50	[1]	3.16 µM [rising, full curve]
Cc1c(CNCc2ccc(Cl)cc2)c(C(=O)O)c(C)n1Cc1ccc(F)cc1	AC50	[1]	3.16 µM [falling, full curve]
Cn1c(=O)oc2cc(S(=O)(=O)N3CCCC(C(=O)N4CC=C(c5ccccc5)CC4)C3)ccc21 (centres undefined)	AC50	[1]	3.98 µM [falling, full curve, poor fit]
Cc1cccc(NC(=O)Cn2c(=O)n(Cc3ccc(C(=O)NCc4ccc5c(c4)OCO5)cc3)c(=O)c3ccccc32)c1	AC50	[1]	0.126 µM [rising, full curve, poor fit]
CCOc1ccc(C(=O)c2cn(CC(=O)Nc3cc(OC)cc(OC)c3)c3ccc(F)cc3c2=O)cc1	AC50	[1]	25.1 µM [falling, single point]
Cc1nnc(N2CCC(C(=O)NC(C)C)CC2)c2nn(-c3ccc(Cl)cc3)c(C)c12	AC50	[1]	39.8 µM [falling, single point]
CC(C)(C)C(=O)C1C(=O)c2ccccc2C1=O	AC50	[1]	15.8 µM [falling, full curve, poor fit]
COc1cccc(CNCCSc2nnnn2C)c1OCc1ccc(Cl)cc1Cl	AC50	[1]	25.1 µM [falling, partial curve]
COc1ccc(C2c3cccn3CCN2S(=O)(=O)c2ccccc2[N+](=O)[O-])cc1OC (centres undefined)	AC50	[1]	0.316 µM [rising, full curve]
O=C(NCC(c1ccc2c(c1)OCO2)N1CCOCC1)c1ccccc1F (centres undefined)	AC50	[1]	6.31 µM [rising, partial curve]
COc1cccc(CNC(=O)C2Cc3cc(S(=O)(=O)N4CCCCCC4)ccc3N2C(C)=O)c1 (centres undefined)	AC50	[1]	3.16 µM [rising, single point]
CCCCCn1c(NCc2ccccc2OC)nc2ccccc21	AC50	[1]	25.1 µM [falling, single point]
Fc1cccc(F)c1-c1nc(-c2ccncc2)no1	AC50	[2]	6.31 µM [rising, single point]
